Laboratory results reported in patent US20220251081A1, “HETEROBICYCLIC INHIBITORS OF MAT2A AND METHODS OF USE FOR TREATING CANCER” (priority 2019, published 2022).
pIC50: −log10 of the molar value. Structures were worked out from names or drawings and are uncertain.

By UniProt entry, the sequences of proteins in these tests, tags left out.
UniProt P31153, whole entry: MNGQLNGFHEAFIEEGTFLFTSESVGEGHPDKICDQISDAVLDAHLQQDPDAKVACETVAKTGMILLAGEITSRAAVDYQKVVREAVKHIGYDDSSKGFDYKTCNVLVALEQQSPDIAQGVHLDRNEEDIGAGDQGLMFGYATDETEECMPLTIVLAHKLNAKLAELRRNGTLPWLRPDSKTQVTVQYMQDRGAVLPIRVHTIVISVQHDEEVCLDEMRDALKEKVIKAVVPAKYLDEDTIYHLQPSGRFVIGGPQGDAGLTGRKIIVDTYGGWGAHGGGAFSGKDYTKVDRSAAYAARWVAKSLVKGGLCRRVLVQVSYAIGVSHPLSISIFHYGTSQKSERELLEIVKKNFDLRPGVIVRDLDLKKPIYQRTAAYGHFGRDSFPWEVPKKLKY

Legend:
[1] = tested on: HCT116 MTAP-/-; assay: Inhibition of cellular proliferation, 4 days, Cell Titer Glo, HCT116 MTAP-/-; conditions: read-out: 4 Day Relative Growth Inhibition (MTAP −/−), IC50 score
Procedure: (§1) Assay for Inhibition of Cellular Proliferation
(§2) Test compound impact on cancer cell growth was assessed by treating cancer cells with compound for 4 days and then measuring proliferation using an ATP-based cell proliferation readout (Cell Titer Glo, Promega Corporation).
(§3) In a typical assay an isogenic pair of HCT116 human colon carcinoma cell lines which vary only in MTAP deletion status (HCT116 MTAP +/+ and HCT116 MTAP−/−) were plated in 96-well dishes at appropriate cell density. Following 24 hours, cells were then treated with the candidate MAT2A inhibitor. Prior to addition to cells, the compound was first serially diluted in 100% DMSO, typically as a 3-fold serial dilution starting at 500× top dose with 10 dose points including DMSO only control. […]
(§4) To measure inhibition of cellular proliferation, cells were allowed to equilibrate to room temperature for 30 minutes, and were then treated with 125 μL of Cell Titer Glo reagent. […] Luminescent signal was then measured using a plate-based luminometer Veritas version 1.9.2 using ATP standard curve to confirm assay reproducibility from run to run. This luminescence measure was converted to a proliferation index by subtracting from each data point the ATP luminescence signal measured from a bank (no cells) well and dividing by the ATP luminescence signal measured in 0.2% DMSO control well adjusted for signal in blank well. […]

[2] = target: MAT2A homodimer (Homo sapiens, UniProt P31153); assay: Biochemical assay: inhibition of recombinant MAT2A homodimer (phosphate release, PiColorLock Gold); conditions: read-out: Enzyme Inhibition; MAT2A IC50 score
Procedure: Mat2A protein was expressed by recombinant baculovirus in SF9 infected cells using the Bac to Bac system cloned into the pFASTBAC1 vector (Invitrogen, Carlsbad, Calif.). Recombinant MAT2A was isolated from the cell lysate of 150 g of infected cells using HP Ni sepharose column chromatography. Recombinant MAT2A homodimer was eluted with 250 and 500 mM imidazole, and fractions containing MAT2A were identified by sodium dodecyl sulfate polyacrylamide gel electrophoresis and pooled.
For determination of the inhibitory potency of compounds against the MAT2A homodimer, protein was diluted to 4 μg/mL in assay buffer (50 mM Tris, pH 8.0, 50 mM KCl, 15 mM MgCl2, 0.3 mM EDTA, 0.005% [w/v] bovine serum albumin [BSA]). Test compound was prepared in 100% dimethyl sulfoxide (DMSO) at 50× the desired final concentration. A 1 μL volume of compound dilution was added to 40 μL of enzyme dilution and the mixture was allowed to equilibrate for 60 minutes at 25° C. The enzymatic assay was initiated by the addition of 10 μL of substrate mix (500 μM ATP, pH 7.0, 40 μM L-methionine in 1× assay buffer), and the mixture was incubated for a further 60 minutes at 25° C. The reaction was halted and the liberated phosphate released by the enzyme in stoichiometric amounts by the production of S-adenosyl methionine (SAM) was measured using the PiColorLock Gold kit (Innova Biosciences, UK). […]

[3] = tested on: SAM in HCT116 human colon carcinoma cell line with deleted MTAP gene; assay: Cellular assay of target engagement (SAM): SAM level by LC-MS/MS after 72 hrs; conditions: read-out: Cell 72 h SAM Inhibition (MTAP −/−), IC50 score
Procedure: Cellular Assay of Target Engagement (SAM)
Measurement of MAT2A activity in cells was made by direct quantitation of the abundance of the product of its enzymatic activity, SAM. Cancer cells were treated with candidate MAT2A inhibitors for a suitable incubation period, and the cells were then lysed using a reagent which quenched any further enzyme activity. Soluble metabolites including SAM were collected and SAM itself was directly measured from the lysate using quantitative LC-MS/MS.
A typical assay was performed using an HCT116 human colon carcinoma cell line which was genetically engineered to delete the MTAP gene (commercially available from Horizon Discovery). This cell line was utilized because it was determined that loss of the MTAP gene predicts sensitivity to MAT2A inhibitors. Cells were plated in 96-well dishes at appropriate cell density. Following 24 hours, cells were then treated with the candidate MAT2A inhibitor. […]
To quantitate SAM levels following compound treatment, cells were gently washed once in ammonium carbonate buffer (75 mM at pH 7.4), placed on dry ice, and lysed with metabolite extraction buffer (80% cold methanol and 20% water (v/v) with acetic acid at 1M final concentration with 200 ng/mL deuterated d3-SAM as internal control). […]

[4] = tested on: HCT116 MTAP +/+; assay: Inhibition of cellular proliferation, 4 days, Cell Titer Glo, HCT116 MTAP+/+; conditions: read-out: 4 Day Relative Growth Inhibition (MTAP +/+), IC50 score
Procedure: as §1, §2, §3, §4

Structure (SMILES): COc1ccc(-n2c(=O)c(-c3ccc4nn(C)cc4c3)nc3ccc(OCC(F)(F)F)nc32)cn1
- pIC50 [1]: > 7.00
- pIC50 [2]: > 7.00
- pIC50 [3]: > 7.00
- pIC50 [4]: < 6.00
